The list is a part of this screen's results and no random one: it gathers tests that were run many times, whatever their T/C, doses with no T/C, and many T/C values between a quarter and a half above the control. Other doses and runs of a compound stand elsewhere. T/C is the treated group as % of the vehicle group. Some entries give survivors of the animals treated and no T/C: the source holds a T/C of zero for them, seemingly a mark for toxic or unscored doses. Some doses without a T/C left all or most animals alive at the check, yet need not have been tolerated: the source hardly ever lists a survival T/C far under the control, and the zero likely stands for such cases as well. Survivors were counted at the toxicity check, usually on the fifth day, unless a day is given; later deaths do not show. Schedules are NCI's codes, taken here to give the interval after Q, in days (D) or hours (H), and the number of doses after X. Some schedule codes hold Z or #, which are not explained here. For survival time, the PubChem record calls one and a half times the control and up active, and a quarter to a half above the control has no call in these data; cut-offs in other NCI protocols can differ. Some entries hold several experiments; the values are given in rising order.

For the test, the system named is L1210 leukemia ip in BDF1 mice, survival T/C. The experiment in a line: NCI In Vivo Anticancer Drug Screen. Data for tumor model L1210 Leukemia (intraperitoneal) in B6D2F1 (BDF1) mice. Conditions: T/C endpoint: mean survival time, higher T/C = longer survival.
Setting [1] is: dose: 300.0 mg/kg/injection, schedule: Q01DX001 (ip), vehicle: saline.
Setting [2] is: dose: 400.0 mg/kg/injection, schedule: Q04DX003 (ip), vehicle: saline.
Setting [3] is: dose: 50.0 mg/kg/injection, schedule: Q04DX003 (ip), vehicle: saline.
The mark [4] stands for this setting: dose: 100.0 mg/kg/injection, schedule: Q04DX003 (ip), vehicle: saline.
Setting [5] is: dose: 200.0 mg/kg/injection, schedule: Q04DX003 (ip), vehicle: saline.
The mark [6] stands for this setting: dose: 400.0 mg/kg/injection, schedule: Q01DX009 (ip), vehicle: saline with Tween-80.
The mark [7] stands for this setting: dose: 200.0 mg/kg/injection, schedule: Q04DX002 (ip), vehicle: Klucel (hydroxypropylcellulose) (HPC).
Setting [8] is: dose: 400.0 mg/kg/injection, schedule: Q04DX003 (ip), vehicle: saline with Tween-80.
[9] abbreviates: dose: 400.0 mg/kg/injection, schedule: Q01DX001 (ip), vehicle: saline.
[10] abbreviates: dose: 400.0 mg/kg/injection, schedule: Q01DX001 (ip), vehicle: carboxymethylcellulose (CMC).

Regarding `Oc1ccccc1OCCOCCOc1ccccc1O`, where the note is “dose: 200.0 mg/kg/injection, schedule: Q04DX002 (ip), vehicle: other”, the T/C was 128 % of control. Further, the survivor count (dose: 400.0 mg/kg/injection, schedule: Q04DX002 (ip), vehicle: other) is recorded as 3 of 3.
Consider `CN(CCC(C#N)c1ccccc1)C(=O)c1ccccc1` (configuration not stated), for which the survivor count under setting [1] is 0 of 6.
Consider `Cc1cccc(NC(=O)Nc2cccc3ccccc23)c1C`, for which the survivor count (dose: 100.0 mg/kg/injection, schedule: Q04DX003 (ip), vehicle: Klucel (hydroxypropylcellulose) (HPC)) is reported as 6 of 6.
In the case of `Oc1ccccc1C=NC1CCCCC1.Oc1ccccc1C=NC1CCCCC1.[Ni+2]`, the survivor count under setting [2] was 3 of 6.
In the case of `C[S+]1CCC(N)C(=O)C1` (configuration not stated), the T/C by setting is: (dose: 25.0 mg/kg/injection, schedule: Q04DX002 (ip), vehicle: saline) 126 % of control; (dose: 100.0 mg/kg/injection, schedule: Q04DX002 (ip), vehicle: saline) 129 % of control.
As for `Nc1nc(Cc2cccc3ccccc23)nc(Cc2cccc3ccccc23)n1`, the survivor count (dose: 400.0 mg/kg/injection, schedule: Q04DX003 (ip), vehicle: Klucel (hydroxypropylcellulose) (HPC)) is 6 of 6.
`CCCCn1ccnc1`: the survivor count reads like this: under setting [3], 1 of 6; under setting [4], 0 of 6; under setting [5], 0 of 6; under setting [2], 0 of 6.
Regarding `C[N+](C)(C)C1(Cc2ccc(Br)cc2)c2ccccc2-c2ccccc21`, the survivor count is given as 6 of 6 (dose: 50.0 mg/kg/injection, schedule: Q04DX003 (ip), vehicle: saline with Tween-80) and 0 of 6 (dose: 100.0 mg/kg/injection, schedule: Q04DX003 (ip), vehicle: saline with Tween-80).
As to `CC1=CC(C)(C)Nc2ccc(Nc3ccccc3)cc21`, the survivor count under setting [1] is 2 of 6.
For `Ic1cccc(Oc2ccccc2)c1`, the survivor count under setting [6] was 3 of 6.
Take `CCC[As](=O)(O)CC`: where the note is “dose: 400.0 mg/kg/injection, schedule: Q01DX009 (ip), vehicle: saline”, the survivor count was 0 of 6.
As for `CCCCCC(=C/c1ccccc1)/C=N/N=C(N)N`, the survivor count is 0 of 6 (dose: 120.0 mg/kg/injection, schedule: Q01DX Z (ip), vehicle: saline) and 3 of 6 (dose: 240.0 mg/kg/injection, schedule: Q01DX Z (oral), vehicle: saline).
Consider `Cc1ccc(N=Nc2c(N)ccc3ccccc23)cc1`, for which, where the note is “dose: 400.0 mg/kg/injection, schedule: Q01DX001 (ip), vehicle: other”, the survivor count is 1 of 3.
With `CC1(C)COC(=S)N1`, the survivor count is, setting by setting: (dose: 10.0 mg/kg/injection, schedule: Q04DX003 (ip), vehicle: Klucel (hydroxypropylcellulose) (HPC)) 6 of 6; (dose: 20.0 mg/kg/injection, schedule: Q01DX009 (ip), vehicle: Klucel (hydroxypropylcellulose) (HPC)) 2 of 6; (dose: 20.0 mg/kg/injection, schedule: Q01DX009 (ip), vehicle: saline) 1 of 10; (dose: 25.0 mg/kg/injection, schedule: Q01DX009 (ip), vehicle: Klucel (hydroxypropylcellulose) (HPC)) 6 of 6; (dose: 40.0 mg/kg/injection, schedule: Q01DX009 (ip), vehicle: Klucel (hydroxypropylcellulose) (HPC)) 0 of 6; (dose: 40.0 mg/kg/injection, schedule: Q04DX003 (ip), vehicle: Klucel (hydroxypropylcellulose) (HPC)) 0 of 6. In addition, under “dose: 50.0 mg/kg/injection, schedule: Q01DX009 (ip), vehicle: Klucel (hydroxypropylcellulose) (HPC)”, the survivor count is 0 of 6.
As for `Cc1c(Cl)cccc1CC(Cl)C#N` (configuration not stated), the survivor count by setting is: (dose: 50.0 mg/kg/injection, schedule: Q01DX009 (ip), vehicle: saline with Tween-80) 3 of 3; (dose: 200.0 mg/kg/injection, schedule: Q01DX009 (ip), vehicle: saline with Tween-80) 1 of 3.
For the compound `O=C(Nc1cccc2ccccc12)SCc1ccccc1`, the survivor count under setting [7] is on record as 3 of 3.
Regarding `O=C(N/N=C(\C=N\NC(=O)c1ccccc1)CC(O)CO)c1ccccc1` (configuration not stated), under setting [8], the survivor count is 4 of 6.
For the compound `CCCNC1=C(N2CC2)C(=O)C(NCCC)=C(N2CC2)C1=O`, the T/C (dose: 1.5 mg/kg/injection, schedule: Q04DX003 (ip), vehicle: saline) is 125 % of control; the T/C (dose: 3.12 mg/kg/injection, schedule: Q01DX009 (ip), vehicle: saline) is 126 and 132 % of control; the T/C (dose: 6.0 mg/kg/injection, schedule: Q04DX003 (ip), vehicle: saline) was 125 and 128 % of control; the T/C (dose: 6.25 mg/kg/injection, schedule: Q01DX009 (ip), vehicle: saline) was 143 and 148 % of control; the T/C (dose: 12.5 mg/kg/injection, schedule: Q01DX009 (ip), vehicle: saline) is 129 and 130 % of control. Also, the survivor count is on record as 6 of 6 (dose: 25.0 mg/kg/injection, schedule: Q01DX009 (ip), vehicle: saline); 5 of 6 under setting [3]; 0 of 6 under setting [4].
On to `c1ccc(C2=NNc3cccc[n+]3C2)cc1`, for which the survivor count reads like this: (dose: 150.0 mg/kg/injection, schedule: Q01DX001 (ip), vehicle: other) 0 of 6; (dose: 300.0 mg/kg/injection, schedule: Q01DX001 (ip), vehicle: other) 1 of 6.
As for `CC12CC3CC(C)(C1)CC(SCCCCCN=C(N)CSSCC(N)=NCCCCCSC14CC5CC(C)(CC(C)(C5)C1)C4)(C3)C2`, the survivor count is 0 of 3 (dose: 100.0 mg/kg/injection, schedule: Q04DX002 (ip), vehicle: Klucel (hydroxypropylcellulose) (HPC)); 1 of 3 under setting [7]; 1 of 3 (dose: 400.0 mg/kg/injection, schedule: Q04DX002 (ip), vehicle: Klucel (hydroxypropylcellulose) (HPC)).
For `Cc1cc(C)c2nc(-c3ccc(F)cc3)cc(C(=O)O)c2c1`, the survivor count under setting [9] is reported as 1 of 6.
Regarding `O=C(O)c1cc(S(=O)(=O)Cl)ccc1Cl`, the survivor count (dose: 200.0 mg/kg/injection, schedule: Q04DX003 (ip), vehicle: Klucel (hydroxypropylcellulose) (HPC)) is on record as 2 of 6 and the survivor count under setting [10] is 1 of 6.
On to `CN(C)c1ncnc2c1ncn2C1CCC(CO)C1` (configuration not stated), for which, under setting [10], the survivor count was 2 of 4.
Regarding `CCOC(=O)c1ccc(NC(=O)Nc2c(C)n(C)n(-c3ccccc3)c2=O)cc1`, under setting [6], the survivor count is 2 of 6.
In the case of `COc1cc2c(cc1OC)C(NC(C)C)CCCC2` (configuration not stated), under setting [9], the survivor count is listed as 0 of 4.
`CC(C)N(C(=O)C1C2C=CC(C2)C1C(=O)N(C(C)C)C(C)C)C(C)C` (configuration not stated): the survivor count runs as follows: (dose: 200.0 mg/kg/injection, schedule: Q04DX003 (ip), vehicle: saline with Tween-80) 1 of 3; under setting [8], 0 of 3.
`CCC(C)C(C(=O)OC1CCN(CC)CC1)c1ccccc1` (configuration not stated): the survivor count runs as follows: under setting [5], 5 of 6; under setting [2], 0 of 6.
Take `CCCN(/C=C/C=C/C=[N+](CCC)CCC)CCC`: the survivor count reads like this: (dose: 0.19 mg/kg/injection, schedule: Q04DX003 (ip), vehicle: saline) 1 of 6; (dose: 0.39 mg/kg/injection, schedule: Q04DX003 (ip), vehicle: saline) 0 of 6; (dose: 0.78 mg/kg/injection, schedule: Q04DX003 (ip), vehicle: saline) 0 of 6; (dose: 1.56 mg/kg/injection, schedule: Q04DX003 (ip), vehicle: saline) 0 of 6; (dose: 3.13 mg/kg/injection, schedule: Q04DX003 (ip), vehicle: saline) 0 of 6; (dose: 6.25 mg/kg/injection, schedule: Q04DX003 (ip), vehicle: saline) 0 of 6. Also, the survivor count is 2 of 6 (dose: 12.5 mg/kg/injection, schedule: Q04DX003 (ip), vehicle: saline); 1 of 6 (dose: 25.0 mg/kg/injection, schedule: Q04DX003 (ip), vehicle: saline); 0 of 6 under setting [3]; 0 of 6 under setting [4]; 0 of 6 under setting [5]; 0 of 6 under setting [2].
Consider `CCCCSc1n[nH]c(=O)[nH]c1=S`, for which the survivor count under setting [9] is listed as 2 of 6.

(Values after PubChem BioAssay AID248 (DTP/NCI, 2004).)
